Assay results: US7517523B2, “Anti-MIF antibodies” (Cytokine PharmaSciences, Inc., priority 1993, dated 2009)
At least one compound was matched to its structure with a doubt left.

System: Sprague-Dawley female rats
Assay: Serum MIF after i.v. steroid injection
Format: in vivo, rat
Details: 10 mg/kg i.v., serum Western blotting
Protocol: Canulated Sprague-Dawley female rats were purchased from Zivic-Miller. Animals were housed with free access to food and water and were acclimatized for at least 2 days prior to experimentation. Rats were injected i.v. through the jugular vein with either dexamethasone (1, 10 or 20 mg/kg), or with RU38486 (mifepristone) (1 or 10 mg/kg), or with the two drugs together (both at 10 mg/kg, RU38486 was injected 15 min. before dexamethasone). Serum was collected 3, 6, and 9 hours post-steroids injection and analyzed by Western blotting with anti-MIF antibody.

## C[C@@H]1C[C@H]2[C@@H]3CCC4=CC(=O)C=C[C@]4(C)[C@@]3(F)[C@@H](O)C[C@]2(C)[C@@]1(O)C(=O)CO [Dexamethasone]
  MIF secretion in vivo: induced MIF secretion
